Results: patent US20100247430A1 (published 2010)
Results are given in words; binding and its absence hold for the method and conditions named. In cells and extracts the contact can be indirect. Some entries that bind do so weakly or less than the wild type.

Amino acid sequences for entries named in this document (tags omitted).
UniProt Q80U72: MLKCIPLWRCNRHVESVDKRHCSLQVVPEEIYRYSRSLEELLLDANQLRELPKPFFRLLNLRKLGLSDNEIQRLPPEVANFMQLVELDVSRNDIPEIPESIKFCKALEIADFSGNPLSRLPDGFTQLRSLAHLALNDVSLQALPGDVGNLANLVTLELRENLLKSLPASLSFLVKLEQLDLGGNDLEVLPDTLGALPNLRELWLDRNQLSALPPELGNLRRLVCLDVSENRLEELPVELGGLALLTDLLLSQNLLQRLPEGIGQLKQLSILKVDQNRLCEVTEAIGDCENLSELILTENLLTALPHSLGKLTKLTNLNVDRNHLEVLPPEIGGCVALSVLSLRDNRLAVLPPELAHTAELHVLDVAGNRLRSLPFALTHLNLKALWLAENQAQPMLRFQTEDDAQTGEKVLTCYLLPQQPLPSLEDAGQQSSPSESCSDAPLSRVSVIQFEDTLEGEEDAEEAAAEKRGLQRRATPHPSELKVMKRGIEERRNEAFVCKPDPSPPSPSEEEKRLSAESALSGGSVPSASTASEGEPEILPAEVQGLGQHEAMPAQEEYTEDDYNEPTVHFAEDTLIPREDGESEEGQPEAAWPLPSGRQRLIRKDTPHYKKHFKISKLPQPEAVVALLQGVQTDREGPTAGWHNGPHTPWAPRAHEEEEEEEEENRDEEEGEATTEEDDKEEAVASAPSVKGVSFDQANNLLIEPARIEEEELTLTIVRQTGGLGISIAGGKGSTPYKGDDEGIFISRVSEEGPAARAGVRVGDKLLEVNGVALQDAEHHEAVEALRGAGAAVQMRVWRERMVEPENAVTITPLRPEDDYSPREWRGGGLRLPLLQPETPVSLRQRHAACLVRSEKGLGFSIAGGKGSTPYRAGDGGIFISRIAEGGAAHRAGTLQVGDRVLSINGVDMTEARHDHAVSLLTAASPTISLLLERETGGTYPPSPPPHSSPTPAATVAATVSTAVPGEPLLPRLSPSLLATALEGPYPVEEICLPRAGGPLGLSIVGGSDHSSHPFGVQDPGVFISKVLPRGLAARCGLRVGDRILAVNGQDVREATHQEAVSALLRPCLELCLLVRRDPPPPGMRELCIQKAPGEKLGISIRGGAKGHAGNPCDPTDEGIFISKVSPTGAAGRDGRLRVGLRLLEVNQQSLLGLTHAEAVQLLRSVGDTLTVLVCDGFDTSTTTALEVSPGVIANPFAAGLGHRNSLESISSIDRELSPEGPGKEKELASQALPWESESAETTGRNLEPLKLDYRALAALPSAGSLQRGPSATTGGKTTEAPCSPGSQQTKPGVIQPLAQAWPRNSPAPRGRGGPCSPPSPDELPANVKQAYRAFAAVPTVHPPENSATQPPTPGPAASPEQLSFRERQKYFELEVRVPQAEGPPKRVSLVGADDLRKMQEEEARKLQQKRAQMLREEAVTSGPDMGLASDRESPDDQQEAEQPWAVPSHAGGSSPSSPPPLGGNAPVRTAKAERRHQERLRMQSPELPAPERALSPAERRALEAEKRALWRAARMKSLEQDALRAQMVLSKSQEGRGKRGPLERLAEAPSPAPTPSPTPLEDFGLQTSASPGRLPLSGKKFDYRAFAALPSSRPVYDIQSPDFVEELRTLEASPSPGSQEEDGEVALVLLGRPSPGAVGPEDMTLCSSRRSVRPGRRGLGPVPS

Tests used:
[1] = target: Scrib (endogenous, mouse T cells) (mouse) (UniProt Q80U72); assay: summary of the co-immunoprecipitation and GST-PDZ pull-down (discussion)
[2] = target: Scrib (endogenous, mouse T cells) (mouse) (UniProt Q80U72); assay: co-immunoprecipitation from activated mouse CD8+ T cell extracts, anti-Scrib IP (H-300), immunoblot with 17B2
[3] = target: Scrib (endogenous, mouse T cells) (mouse) (UniProt Q80U72); assay: co-immunoprecipitation from activated mouse CD4+ T cell extracts, anti-Scrib IP, anti-Crtam immunoblot

Measured: binding

B1: mouse Crtam (endogenous, on activated mouse T cells) (receptor)
chain: AFLKMETVTVEEGQTLTLTCVTSQTKNVSLQWLAPSGFTIFLNQHPALKSSKYQLLHHSATQLSISVSNVTLREEGVYTCLHYGSSVKTKQVRVTVLVTPFQPTVEALVLRRQNGEKSVVLKCSTERSKPPPQITWLLGEGLEIYGELHHEFEADGKICNTSSTLIARAYGKNSTVHCIIQHEGLHGRKLVAPFQFEDLVADQETTSDAPEQSSLSSQALQQPTSTVSMMENSSIPETDKEEKEHATQDPGLSTASAQHTGLARRKSGILLLTLVSFLIFILFIIVQLFIMKLRKAHVVWKKESEISEQALESYRSRSNNEETSSQENSSQAPQSKRCMNYITQLYSGAKTKKSAQHWKLGGKHSRVPESIV
notes: Endogenous protein of mouse CD4+ or CD8+ T cells; In the co-immunoprecipitations it came from whole cell extracts; In flow cytometry and the Cadm1(ECD)-Fc assay it was on the cell surface; also called class-I MHC restricted T-cell associated molecule
binds: [1] | [2] | [3]
